Measurements published in patent publication US20080045506A1 (GLAXO GROUP LIMITED, priority 2004, published 2008).
Some entries share one result that the patent states for a list of compounds.

By UniProt entry, the sequences of proteins in these tests, tags left out. Where a name states a change or a piece, a line headed by the entry shows the natural chain unless it says otherwise.
UniProt Q9Y5N1: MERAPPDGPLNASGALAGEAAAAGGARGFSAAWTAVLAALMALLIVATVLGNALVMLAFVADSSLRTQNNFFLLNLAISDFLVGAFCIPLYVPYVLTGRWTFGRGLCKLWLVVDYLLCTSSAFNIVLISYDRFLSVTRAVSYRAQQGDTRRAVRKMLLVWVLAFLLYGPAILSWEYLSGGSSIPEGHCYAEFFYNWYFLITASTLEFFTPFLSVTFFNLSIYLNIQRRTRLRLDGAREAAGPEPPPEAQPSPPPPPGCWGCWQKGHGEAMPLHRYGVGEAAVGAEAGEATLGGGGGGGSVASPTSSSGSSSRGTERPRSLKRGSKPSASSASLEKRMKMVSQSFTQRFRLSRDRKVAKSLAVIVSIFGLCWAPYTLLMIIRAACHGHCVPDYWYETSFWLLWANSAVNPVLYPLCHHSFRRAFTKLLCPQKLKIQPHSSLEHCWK
UniProt P35367, whole entry: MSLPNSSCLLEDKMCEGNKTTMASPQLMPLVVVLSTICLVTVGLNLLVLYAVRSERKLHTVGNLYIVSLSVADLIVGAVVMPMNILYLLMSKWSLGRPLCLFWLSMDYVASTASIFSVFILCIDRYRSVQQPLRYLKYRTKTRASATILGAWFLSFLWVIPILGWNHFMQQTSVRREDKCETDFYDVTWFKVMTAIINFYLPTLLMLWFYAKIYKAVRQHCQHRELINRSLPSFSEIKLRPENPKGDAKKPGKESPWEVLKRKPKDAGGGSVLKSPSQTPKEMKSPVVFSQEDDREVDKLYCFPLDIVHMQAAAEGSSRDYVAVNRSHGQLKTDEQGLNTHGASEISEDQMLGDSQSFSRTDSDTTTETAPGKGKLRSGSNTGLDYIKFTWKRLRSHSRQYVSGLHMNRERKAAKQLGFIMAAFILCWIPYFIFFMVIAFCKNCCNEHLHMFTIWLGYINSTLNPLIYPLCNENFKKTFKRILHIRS

How the values were obtained:
histamine H3 receptor = target: T1, histamine H3 receptor (Homo sapiens, UniProt Q9Y5N1); test: Histamine H3 functional antagonist assay (method B); type: biochemical; settings: [35S]-GTPγS SPA, membrane prepared from cultured H3 cells, histamine at EC80, averages of a number of experiments
T1 construct: expressed in transfected cells; host or cells: CHO K1 cells (pSwitch/pGene GeneSwitch system, mifepristone-induced), clone 3H3; membranes
Description: A membrane preparation containing histamine H3 receptors may be prepared in accordance with the following procedures:
(i) Generation of Histamine H3 Cell Line
DNA encoding the human histamine H3 gene (Huvar, A. et al. (1999) Mol. Pharmacol. 55(6), 1101-1107) was cloned into a holding vector, pcDNA3.1 TOPO (InVitrogen) and its cDNA was isolated from this vector by restriction digestion of plasmid DNA with the enzymes BamH1 and Not-1 and ligated into the inducible expression vector pGene (InVitrogen) digested with the same enzymes. The GeneSwitch™ system (a system where in transgene expression is switched off in the absence of an inducer and switched on in the presence of an inducer) was performed as described in U.S. Pat. Nos. 5,364,791; 5,874,534; and 5,935,934. Ligated DNA was transformed into competent DH5α E. coli host bacterial cells and plated onto Luria Broth (LB) agar containing Zeocin™ (an antibiotic which allows the selection of cells expressing the sh ble gene which is present on pGene and pSwitch) at 50 μg ml^−1. Colonies containing the re-ligated plasmid were identified by restriction analysis. DNA for transfection into mammalian cells was prepared from 250 ml cultures of the host bacterium containing the pGeneH3 plasmid and isolated using a DNA preparation kit (Qiagen Midi-Prep) as per manufacturers guidelines (Qiagen).
CHO K1 cells previously transfected with the pSwitch regulatory plasmid (InVitrogen) were seeded at 2×10e6 cells per T75 flask in Complete Medium, containing Hams F12 (GIBCOBRL, Life Technologies) medium supplemented with 10% v/v dialysed foetal bovine serum, L-glutamine, and hygromycin (100 μg ml^−1), 24 hours prior to use. Plasmid DNA was transfected into the cells using Lipofectamine plus according to the manufacturers guidelines (InVitrogen). 48 hours post transfection cells were placed into complete medium supplemented with 500 μg ml^−1 Zeocin™.
10-14 days post selection 10 nM Mifepristone (InVitrogen), was added to the culture medium to induce the expression of the receptor. 18 hours post induction cells were detached from the flask using ethylenediamine tetra-acetic acid (EDTA; 1:5000; InVitrogen), following several washes with phosphate buffered saline pH 7.4 and resuspended in Sorting Medium containing Minimum Essential Medium (MEM), without phenol red, and supplemented with Earles salts and 3% Foetal Clone II (Hyclone). Approximately 1×10e7 cells were examined for receptor expression by staining with a rabbit polyclonal antibody, 4a, raised against the N-terminal domain of the histamine H3 receptor, incubated on ice for 60 minutes, followed by two washes in sorting medium. Receptor bound antibody was detected by incubation of the cells for 60 minutes on ice with a goat anti rabbit antibody, conjugated with Alexa 488 fluorescence marker (Molecular Probes). Following two further washes with Sorting Medium, cells were filtered through a 50 μm Filcon™ (BD Biosciences) and then analysed on a FACS Vantage SE Flow Cytometer fitted with an Automatic Cell Deposition Unit. Control cells were non-induced cells treated in a similar manner. Positively stained cells were sorted as single cells into 96-well plates, containing Complete Medium containing 500 μg ml^−1 Zeocin™ and allowed to expand before reanalysis for receptor expression via antibody and ligand binding studies. One clone, 3H3, was selected for membrane preparation.
(ii) Membrane Preparation from Cultured Cells
All steps of the protocol are carried out at 4° C. and with pre-cooled reagents. The cell pellet is resuspended in 10 volumes of homogenisation buffer (50 mM N-2-hydroxyethylpiperazine-N′-2-ethanesulfonic acid (HEPES), 1 mM ethylenediamine tetra-acetic acid (EDTA), pH 7.4 with KOH, supplemented with 10e-6M leupeptin (acetyl-leucyl-leucyl-arginal; Sigma L2884), 25 μg/ml bacitracin (Sigma B0125), 1 mM phenylmethylsulfonyl fluoride (PMSF) and 2×10e-6M pepstain A (Sigma)). […]

human H1 receptor = target: T2, human H1 receptor (Homo sapiens, UniProt P35367); test: Histamine H1 functional antagonist assay; type: cell-based; settings: FLIPR, CHO cells expressing human H1 receptor, histamine at EC80; Cheng-Prusoff; averages of a number of experiments
T2 construct: expressed in transfected cells

Compound	functional pKi (fpKi), antagonism (histamine H3 receptor)	functional pKi (fpKi), antagonism (human H1 receptor)
Cc1noc(-c2ccc(N3CC[C@H](C(=O)N4CCCN(C(C)C)CC4)C3)cn2)n1.Cl [Example E53, 1-(1-Methylethyl)-4-({(3S)-1-[6-(3-methyl-1,2,4-oxadiazol-5-yl)-3-pyridinyl]-3-pyrrolidinyl}carbonyl)hexahydro-1H-1,4-diazepine hydrochloride]	> 8.0	< 6.5
Cc1noc(-c2cccc(N3CC[C@H](C(=O)N4CCN(C(C)C)CC4)C3)c2)n1.Cl [Example E31, 1-(1-Methylethyl)-4-({(3S)-1-[3-(3-methyl-1,2,4-oxadiazol-5-yl)phenyl]-3-pyrrolidinyl}carbonyl)piperazine hydrochloride]	> 8.0	< 6.5
CC(C)N1CCN(C(=O)[C@H]2CCN(c3cnc(C(F)(F)F)nc3)C2)CC1 [Example E37, 5-((3S)-3-{[4-(1-Methylethyl)-1-piperazinyl]carbonyl}-1-pyrrolidinyl)-2-(trifluoromethyl)pyrimidine]	> 8.0	< 6.5
Cc1noc(-c2ccc(N3CC[C@H](C(=O)N4CCN(C5CCC5)CC4)C3)cn2)n1.Cl [Example E51, 1-Cyclobutyl-4-({(3S)-1-[6-(3-methyl-1,2,4-oxadiazol-5-yl)-3-pyridinyl]-3-pyrrolidinyl}carbonyl)piperazine hydrochloride]	> 8.0	< 6.5
Cc1noc(-c2ccc(N3CC[C@H](C(=O)N4CCN(C5CCC5)CC4)C3)cc2F)n1.Cl [Example E52, 1-Cyclobutyl-4-({(3S)-1-[3-fluoro-4-(3-methyl-1,2,4-oxadiazol-5-yl)phenyl]-3-pyrrolidinyl}carbonyl)piperazine hydrochloride]	> 8.0	< 6.5
O=C([C@H]1CCN(c2ccc(C(F)(F)F)nc2)C1)N1CCN(C2CCC2)CC1 [Example E12, 1-Cyclobutyl-4-({(3S)-1-[6-(trifluoromethyl)-3-pyridinyl]-3-pyrrolidinyl}carbonyl)piperazine]	> 8.0	< 6.5
Cc1nc(-c2ccc(N3CC[C@H](C(=O)N4CCN(C(C)C)CC4)C3)cc2)no1 [Example E33, 1-(1-Methylethyl)-4-({(3S)-1-[4-(5-methyl-1,2,4-oxadiazol-3-yl)phenyl]-3-pyrrolidinyl}carbonyl)piperazine]	> 8.0	< 6.5
CC(C)N1CCN(C(=O)[C@H]2CCN(c3ccc(C(F)(F)F)nc3)C2)C[C@@H]1C [Example E4, (2S)-2-Methyl-1-(1-methylethyl)-4-({(3S)-1-[6-(trifluoromethyl)-3-pyridinyl]-3-pyrrolidinyl}carbonyl)piperazine]	> 8.0	< 6.5
Cc1noc(-c2ccc(N3CC[C@@H](C(=O)N4CCN(C(C)C)CC4)C3)cc2)n1 [Example E38, 1-(1-Methylethyl)-4-({(3R)-1-[4-(3-methyl-1,2,4-oxadiazol-5-yl)phenyl]-3-pyrrolidinyl}carbonyl)piperazine]	> 8.0	< 6.5
CCC(CC)N1CCN(C(=O)[C@H]2CCN(c3ccc(C(C)=O)cc3)C2)CC1 [Example E8, 1-[4-((3S)-3-{[4-(1-Ethylpropyl)-1-piperazinyl]carbonyl}-1-pyrrolidinyl)phenyl]ethanone]	> 8.0	< 6.5
CC(C)N1CCN(C(=O)[C@H]2CCN(c3ccc(-c4ccno4)cc3)C2)CC1 [Example E41, 1-({(3S)-1-[4-(5-isoxazolyl)phenyl]-3-pyrrolidinyl}carbonyl)-4-(1-methylethyl)piperazine]	> 8.0	< 6.5
Cc1noc(-c2ccc(N3CC[C@H](C(=O)N4CCN(C(C)C)CC4)C3)cc2F)n1 [Example E24, 1-({(3S)-1-[3-Fluoro-4-(3-methyl-1,2,4-oxadiazol-5-yl)phenyl]-3-pyrrolidinyl}carbonyl)-4-(1-methylethyl)piperazine]	> 8.0	< 6.5
Cc1noc(-c2ccc(N3CC[C@H](C(=O)N4CCCN(C(C)C)CC4)C3)cc2)n1 [Example E28, 1-(1-Methylethyl)-4-({(3S)-1-[4-(3-methyl-1,2,4-oxadiazol-5-yl)phenyl]-3-pyrrolidinyl}carbonyl)hexahydro-1H-1,4-diazepine]	> 8.0	< 6.5
CC(C)N1CCN(C(=O)[C@H]2CCN(c3ccc(C#N)cc3)C2)CC1.Cl [Example E36, 4-((3S)-3-{[4-(1-Methylethyl)-1-piperazinyl]carbonyl}-1-pyrrolidinyl)benzonitrile hydrochloride]	> 8.0	< 6.5
Cc1nnc(-c2ccc(N3CC[C@H](C(=O)N4CCCN(C(C)C)CC4)C3)cc2)o1.Cl [Example E47, 1-(1-Methylethyl)-4-({(3S)-1-[4-(5-methyl-1,3,4-oxadiazol-2-yl)phenyl]-3-pyrrolidinyl}carbonyl)hexahydro-1H-1,4-diazepine hydrochloride]	> 8.0	< 6.5
CC(=O)c1ccc(N2CC[C@H](C(=O)N3CCN(CC4CC4)CC3)C2)cc1 [Example E15, 1-[4-((3S)-3-{[4-(Cyclopropylmethyl)-1-piperazinyl]carbonyl}-1-pyrrolidinyl)phenyl]ethanone]	> 8.0	< 6.5
CC(=O)c1ccc(N2CC[C@H](C(=O)N3CCCN(C(C)C)CC3)C2)cc1 [Example E27, 1-[4-((3S)-3-{[4-(1-Methylethyl)hexahydro-1H-1,4-diazepin-1-yl]carbonyl}-1-pyrrolidinyl)phenyl]ethanone]	> 8.0	< 6.5
CC(C)N1CCCN(C(=O)[C@H]2CCN(c3ccc(C#N)cc3)C2)CC1.Cl [Example E46, 4-((3S)-3-{[4-(1-Methylethyl)hexahydro-1H-1,4-diazepin-1-yl]carbonyl}-1-pyrrolidinyl)benzonitrile hydrochloride]	> 8.0	< 6.5
Cc1nnc(-c2ccc(N3CC[C@H](C(=O)N4CCN(C(C)C)CC4)C3)cc2)o1 [Example E30, 1-(1-Methylethyl)-4-({(3S)-1-[4-(5-methyl-1,3,4-oxadiazol-2-yl)phenyl]-3-pyrrolidinyl}carbonyl)piperazine]	> 8.0	< 6.5
O=C([C@H]1CCN(c2ccc(C(F)(F)F)nc2)C1)N1CCN(CC2CC2)CC1 [Example E14, 1-(Cyclopropylmethyl)-4-({(3S)-1-[6-(trifluoromethyl)-3-pyridinyl]-3-pyrrolidinyl}carbonyl)piperazine]	> 8.0	< 6.5
Cc1noc(-c2ccc(N3CC[C@H](C(=O)N4CCCN(C(C)C)CC4)C3)cc2F)n1.Cl [Example E29, 1-({(3S)-1-[3-Fluoro-4-(3-methyl-1,2,4-oxadiazol-5-yl)phenyl]-3-pyrrolidinyl}carbonyl)-4-(1-methylethyl)hexahydro-1H-1,4-diazepine hydrochloride]	> 8.0	< 6.5
